These are yes or no findings as the source states them, for the method shown. In cells and extracts the contact can be indirect. Binding can be weak; no strength is given.
Molecular target: 3xHA-MARF1 (transgenic full-length Drosophila MARF1) (Drosophila)
Assay: co-IP; anti-HA magnetic beads; ovary lysates of flies expressing 3xHA-MARF1 (full-length or fragments) and of w1118 negative control; lysis buffer 25 mM Tris-HCl pH 7.4, 150 mM NaCl, 1 mM EDTA, 1% IGEPAL CA-630, 5% glycerol; with or without 0.1 ug/ml RNase A; 4 °C overnight; Western blot

B1: Not2 (protein, UniProt Q94547 1-585)
chain: MANLNFQQPPRSIANAALAGRTTGGFGGSSLAGHVTPTSGMFQTDFANSYPGTANYGQAPQQQQQQQQQPQLSPNRNAQLSVGGPAISSGNRNANLFGQRQFVERRAMQGLGSGPMSNMGNFMQTGRGGYGTGGGGGGPLNNFHVFGGGGGSDTSTPALLDPTEFPSLTNARGQNDQTLPQSNPLQPPGSKPYGNFFTSFGMVKQPTSEQSEFTMSNEDFPALPGTQNSDGTTNAVGSVAGTGGSGGASTENHLDGTEKPMNSIVVSGSASGSSGSNVGVVGGNGLGAVGSGIGGLAVGGGGGAGSSGGGGVGGNAASGVVGGSHVGLVGSNSGIGGVNSVPNSNAMMGVGGGLGSGSGSSGSGAGGEHLNDNSSNDKLVKSGVQTSPDGKVTNIPATMVNNQFGMVGLLTFIRAAETDPNLVTLSLGTDLTGLGLNLNSQESLHTTFAGPFVAQPCRAQDVEFNVPPEYLINFAIRDKLTAPVLKKLQEDLLFFLFYTNIGDMMQLMAAAELHSREWRYHVEEKIWITRIPGIDQYEKNGTKERGTFYYFDAQSWKRLSKVFQIDPEKLDKCPNISAFMNGQSV
- binding: binds
